Results are given in words; binding and its absence hold for the method and conditions named. In cells and extracts the contact can be indirect. Some binding calls cover weakened binding; strength is not graded here.
Molecular target: T1, peroxisome proliferator-activated receptor γ coactivator 1α (UniProt Q9UBK2)
T1 sequence: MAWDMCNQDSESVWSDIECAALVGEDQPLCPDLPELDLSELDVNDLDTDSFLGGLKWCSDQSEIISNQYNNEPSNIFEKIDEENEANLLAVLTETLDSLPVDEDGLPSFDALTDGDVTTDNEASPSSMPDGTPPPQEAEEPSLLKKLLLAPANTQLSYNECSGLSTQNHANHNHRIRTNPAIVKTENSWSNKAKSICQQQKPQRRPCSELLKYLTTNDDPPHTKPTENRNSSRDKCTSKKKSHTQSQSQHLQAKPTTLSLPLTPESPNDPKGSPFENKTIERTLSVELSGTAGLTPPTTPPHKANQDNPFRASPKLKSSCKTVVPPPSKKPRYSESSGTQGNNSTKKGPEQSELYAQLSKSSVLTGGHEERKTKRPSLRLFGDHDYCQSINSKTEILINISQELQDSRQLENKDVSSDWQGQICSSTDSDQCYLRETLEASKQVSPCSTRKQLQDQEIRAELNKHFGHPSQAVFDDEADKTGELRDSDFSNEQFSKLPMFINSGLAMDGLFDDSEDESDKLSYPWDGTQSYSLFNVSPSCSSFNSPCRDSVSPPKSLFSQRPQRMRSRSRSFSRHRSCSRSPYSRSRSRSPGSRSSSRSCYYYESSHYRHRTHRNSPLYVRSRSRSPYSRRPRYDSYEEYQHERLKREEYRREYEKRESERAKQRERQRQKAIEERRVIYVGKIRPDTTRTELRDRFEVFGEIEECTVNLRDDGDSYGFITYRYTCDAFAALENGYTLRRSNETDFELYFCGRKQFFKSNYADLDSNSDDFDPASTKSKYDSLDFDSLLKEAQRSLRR
Assay: co-IP; Co-IP analysis of the UBQLN1-PGC1α interaction; cells, precipitating antibody and conditions not told

Amino acid sequences for entries named in this document (tags omitted).
UniProt Q9UMX0: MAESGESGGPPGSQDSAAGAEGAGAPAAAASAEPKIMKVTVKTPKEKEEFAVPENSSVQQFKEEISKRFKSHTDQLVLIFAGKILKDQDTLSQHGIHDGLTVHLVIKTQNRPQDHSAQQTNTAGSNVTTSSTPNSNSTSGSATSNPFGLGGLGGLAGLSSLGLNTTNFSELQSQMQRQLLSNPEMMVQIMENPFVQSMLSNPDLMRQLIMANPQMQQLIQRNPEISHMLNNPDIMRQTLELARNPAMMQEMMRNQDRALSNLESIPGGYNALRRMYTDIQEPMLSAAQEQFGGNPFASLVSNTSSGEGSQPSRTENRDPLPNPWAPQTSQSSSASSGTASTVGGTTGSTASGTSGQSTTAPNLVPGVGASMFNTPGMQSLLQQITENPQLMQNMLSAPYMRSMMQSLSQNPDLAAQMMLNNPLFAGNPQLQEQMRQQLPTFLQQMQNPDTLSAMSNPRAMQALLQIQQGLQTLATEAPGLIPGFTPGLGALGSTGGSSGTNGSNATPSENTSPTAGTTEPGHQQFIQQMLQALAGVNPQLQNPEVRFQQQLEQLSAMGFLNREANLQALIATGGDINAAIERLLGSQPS

With Ubiquilin 1 (from UniProt Q9UMX0 1-589) as the substance, how does the binding read?
The binding was “binds”.

From article PMC8806721
